Measured values taken from PMC3477315.
These are yes or no findings as the source states them, for the method shown. Binding seen in cells or lysates may run through a third protein. Some results given as binding are weak or reduced against the parent protein; the word gives no strength.

The chains behind the UniProt entries cited, without tags or fusion partners. Where a name states a change or a piece, a line headed by the entry shows the natural chain unless it says otherwise.
UniProt Q14790: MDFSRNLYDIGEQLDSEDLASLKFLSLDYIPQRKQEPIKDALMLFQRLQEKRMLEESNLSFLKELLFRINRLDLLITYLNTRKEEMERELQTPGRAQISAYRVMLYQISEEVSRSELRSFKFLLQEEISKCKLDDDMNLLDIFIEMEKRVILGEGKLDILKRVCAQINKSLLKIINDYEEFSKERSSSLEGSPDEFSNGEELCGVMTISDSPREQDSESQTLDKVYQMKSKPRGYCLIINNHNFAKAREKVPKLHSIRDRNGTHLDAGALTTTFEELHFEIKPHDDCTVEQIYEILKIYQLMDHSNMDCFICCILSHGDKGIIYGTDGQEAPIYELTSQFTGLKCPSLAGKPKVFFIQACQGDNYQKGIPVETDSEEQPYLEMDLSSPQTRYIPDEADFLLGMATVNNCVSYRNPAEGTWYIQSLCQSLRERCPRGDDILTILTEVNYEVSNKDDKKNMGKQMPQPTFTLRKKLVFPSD

Target: 35S-labeled IVT procaspase-8 C360A (UniProt Q14790)
Assay: pull-down; in vitro DISC reconstitution as above; procaspase-8 with itself (DED chain), inferred from the amount of IVT 35S-procaspase-8 recruited to the bead-bound complex

binding: binds
Substance: 35S-labeled IVT procaspase-8 C360A (from UniProt Q14790 1-479) (enzyme)
